Test results as given in PubChem BioAssay AID602254 (Broad Institute, 2012).
Out of some 1,000 compounds screened, fewer than 10 were called active.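 How the source made its calls: active means fitted half-maximal concentration no higher than twice the top valid tested dose, with signal falling; inconclusive means flat curve with 30 to 70% inhibition, or poor fit; inactive means the rest.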 Some of the results follow. Potency and affinity values are given separately.

Target: Golgi-associated PDZ and coiled-coil motif-containing protein (Homo sapiens) (UniProt Q9HD26)
Assay: blockers of CAL PDZ–TMR peptide complex – biochemical, fluorescence polarization, untagged CAL PDZ, cherry-pick, set 2, dose response (AID 602254);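 further: 0% = DMSO neutral control and -100% = unlabeled peptide PRC23 positive control; more negative means stronger blocking of peptide binding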
Details: Purified CAL PDZ; at 60 µM (top of the series)

Activity change, negative = inhibition, inactive:
Cc1ccc2cc(C(c3nnnn3Cc3ccccc3)N3CCc4ccccc43)c(=O)[nH]c2c1C (configuration not stated) -2.21%
CCC(Oc1ccccc1C)C(=O)Nc1ccc(S(=O)(=O)Nc2cc(C)on2)cc1 (configuration not stated) -0.121%
Cc1cc(C)nc(NC(=S)Nc2cccc(F)c2)c1 -0.702%
O=C(Nc1cccnc1)c1cc(-c2ccccc2)on1 -0.234%
O=C(CCCCn1c(=O)[nH]c2ccccc2c1=O)NCCC1=CCCCC1 -6.22%
COc1cc(-c2cc(C(=O)Nc3nc4ccccc4s3)c3ccccc3n2)cc(OC)c1OC 1.29%
COc1ccccc1OCCSc1nc2ccccc2n1CC(N)=O -3.42%
CCOc1ccc(NC(=O)CC2C(=O)N(c3cccc(OC)c3)C(=O)N2CCOC)cc1 (configuration not stated) -0.986%
Cc1noc(C)c1COC(=O)CCc1nc2ccccc2c(=O)[nH]1 0.223%
C/C(=N\NC(=O)c1ccc2c(c1)OCO2)c1ccc2c(c1)OCO2 0.577%
O=C(CCCSc1nnnn1-c1cccc2ccccc12)c1ccc(F)cc1 -3.23%
COc1ccccc1NC(=O)CN1CCC(c2nc3ccc(C)cc3[nH]2)CC1 1.67%
O=C(Cc1csc(Nc2nc(=S)[nH]c3ccccc23)n1)N1CCN(c2cccc(Cl)c2)CC1 -1.08%
COc1cc(C(=O)NCC(=O)OCC(=O)c2ccc[nH]2)cc(OC)c1OC -0.612%
CCCN(CCC)CC(C)(C)NS(=O)(=O)c1ccc(Cl)cc1 -0.73%
O=C(Nc1cccc(O)c1)c1cc(-c2ccc3c(c2)OCO3)on1 21%
COC(=O)Nc1ccc(S(=O)(=O)N2CCCCC2C(=O)O)cc1 (configuration not stated) -2.39%
CS(=O)(=O)c1ccc(C(=O)NC2CCCc3ccccc32)cc1 (configuration not stated) 4.04%
COc1ccc(C(=O)NCC(=O)NCc2ccncc2)cc1 0.998%
Cc1ccc(NC(=O)c2ccc(S(=O)(=O)N3CCC(C)CC3)cc2)nc1 3.95%
CC(C)CNC(=O)CC1Nc2ccccc2NC1=O (configuration not stated) -0.28%
O=C(NC(=S)Nn1cnnc1)c1ccccc1Br -0.636%
O=C(NCCCc1ccncc1)C1CCC(=O)N(Cc2ccc(Cl)cc2)C1 (configuration not stated) -2.31%
CCn1nc(C)c(CNC(=O)c2ccc(OC3CCN(Cc4ccccn4)CC3)cc2)c1C -4.32%
C=CCn1c(O)c(/C=C2\C=NN=C2c2ccccc2)sc1=S -4.91%
COc1ccc(OC)c(-c2csc(NC(=O)c3ccc4c(c3)OCO4)n2)c1 0.356%
Cc1ccc(S(=O)(=O)c2nc(NN(C)C)sc2Cl)cc1 -1.6%
CC(=O)Nc1sc2c(c1C(N)=O)CCC2 2.98%
FC(F)(F)c1ccccc1NC(=S)N1CCCC1 3.04%
OCC1(CCOc2ccccc2)CCN(Cc2cccn2-c2ncccn2)CC1 -0.78%
CC(C)CC1NC(=O)N(CC(=O)N(C)C2CCCCC2)C1=O (configuration not stated) -0.87%
CC(=O)c1cnc2nc(SCc3ccc(Cl)cc3)nn2c1C 10.5%
Brc1ccc(-c2noc(C3CCCCC3)n2)cc1 -12%
COc1ccc(N/N=C(\C#N)C(=N)N2CCCCC2)cc1 1.07%
COC(=O)c1sc(-c2ccc(Cl)cc2)cc1N -1.9%
O=C(NCc1ccccn1)NC12CC3CC(CC(C3)C1)C2 -5.26%
COc1ccc(CNC(=O)CCN2C(=S)NC(C)(C)CC2C)cc1 (configuration not stated) -3.51%
COC(=O)c1ccc(Cn2nc(C)cc2C)cc1 2.75%
CCCCNC(=S)N1CCN(c2ccccc2Cl)CC1 -1.76%
Cc1ccccc1Nc1c(-c2ccccn2)nc2ccccn12 -5.43%
O=C(Nc1ccc2cn[nH]c2c1)c1ccccc1F -2.66%
CCCN(CC(=O)Nc1ccccc1C)C(=O)c1sc2ccccc2c1Cl 2.41%
Cc1c(CCC(=O)O)c(=O)oc2c(C)c(OCc3cc4c(cc3Cl)OCO4)ccc12 1.92%
CCOc1ccc(NC(=O)CN(C)S(=O)(=O)c2cccs2)cc1 -3.37%
COc1ccc(NC(=O)NC2(C)CCS(=O)(=O)C2)cc1 (configuration not stated) 1.26%
CCOC(=O)c1c(NC(=O)C2CCCCC2)sc2c1CCN(CC)C2 -0.655%
CSc1ccccc1OCc1cc(C(=O)N2CCN(c3ccccc3)CC2C)no1 (configuration not stated) -4.89%
CC(=O)C1CCCN(C(=O)c2ccc3oc(CCc4ccccc4)nc3c2)C1 (configuration not stated) 3.86%
O=C1NCCCCC1NS(=O)(=O)c1ccc(F)c(F)c1 (configuration not stated) -3.46%
COc1ccc(CCN(C)C(=O)c2c(C)nn(CC(C)C)c2Cl)cc1OC 1.3%
COc1ccc(CC(=O)NCC2CCCN(Cc3ccc(OC(F)(F)F)cc3)C2)cc1 (configuration not stated) 2.37%
CC(=O)N1c2ccc(S(=O)(=O)N(C)CC(=O)N3CCCC3)cc2CC1C (configuration not stated) 3.19%
Cc1ccc(/C=N/N(C)S(=O)(=O)c2ccc(C)cc2)cc1 -0.427%
CN(Cc1c(F)cccc1Cl)C(=O)C1CC(=O)N(CCc2ccccc2)C1 (configuration not stated) -0.925%
O=C(NCCc1ccccc1C(F)(F)F)C1CCC(=O)N(CCCN2CCCC2=O)C1 (configuration not stated) 0.093%
COc1ccccc1C(=O)NC(CCSC)C(=O)NC1CC1 (configuration not stated) 4.47%
O=C(COC(=O)C1CCC(N2C(=O)C3C4CCC(C4)C3C2=O)CC1)c1ccc(F)cc1 (configuration not stated) 0.812%
CCCC(=O)Nc1cc(S(=O)(=O)N2CCCCC2)ccc1N1CCOCC1 -1.8%
COC(=O)CNc1cccc(C(F)(F)F)c1 -1.68%
COc1ccccc1CC(=O)Nc1cccc(C)n1 0.293%
CCSc1nsc(NC(=O)Nc2cccc(F)c2)n1 9.07%
COc1cc(OC)cc(C(=O)NNC(=S)NC2CC2)c1 -1.07%

Of the compounds above, 2 have bromine:
Activity change, negative = inhibition, inactive:
O=C(NC(=S)Nn1cnnc1)c1ccccc1Br -0.636%
Brc1ccc(-c2noc(C3CCCCC3)n2)cc1 -12%

Structures from the list above with a COOH group (two):
Activity change, negative = inhibition, inactive:
COC(=O)Nc1ccc(S(=O)(=O)N2CCCCC2C(=O)O)cc1 (configuration not stated) -2.39%
Cc1c(CCC(=O)O)c(=O)oc2c(C)c(OCc3cc4c(cc3Cl)OCO4)ccc12 1.92%
